Laboratory results published in publication PMC10512269.
Results are given in words; binding and its absence hold for the method and conditions named. Binding seen in cells or lysates may run through a third protein. Some binding calls cover weakened binding; strength is not graded here. Tags and fused reporters may be left off the sequences shown.

Amino acid sequences for entries named in this document (tags omitted).
UniProt Q4WVQ7: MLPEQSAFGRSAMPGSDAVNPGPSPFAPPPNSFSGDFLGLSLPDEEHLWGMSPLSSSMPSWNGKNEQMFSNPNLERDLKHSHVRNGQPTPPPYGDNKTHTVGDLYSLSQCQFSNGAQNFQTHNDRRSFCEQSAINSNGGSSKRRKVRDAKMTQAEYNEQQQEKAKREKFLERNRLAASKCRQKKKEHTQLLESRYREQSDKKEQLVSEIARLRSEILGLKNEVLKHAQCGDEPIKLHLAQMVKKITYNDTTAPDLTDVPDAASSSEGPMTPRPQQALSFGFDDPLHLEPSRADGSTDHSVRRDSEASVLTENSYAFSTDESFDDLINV

Molecular target: T1, AtfA:GFP (Aspergillus fumigatus) (UniProt Q4WY05)
T1 sequence: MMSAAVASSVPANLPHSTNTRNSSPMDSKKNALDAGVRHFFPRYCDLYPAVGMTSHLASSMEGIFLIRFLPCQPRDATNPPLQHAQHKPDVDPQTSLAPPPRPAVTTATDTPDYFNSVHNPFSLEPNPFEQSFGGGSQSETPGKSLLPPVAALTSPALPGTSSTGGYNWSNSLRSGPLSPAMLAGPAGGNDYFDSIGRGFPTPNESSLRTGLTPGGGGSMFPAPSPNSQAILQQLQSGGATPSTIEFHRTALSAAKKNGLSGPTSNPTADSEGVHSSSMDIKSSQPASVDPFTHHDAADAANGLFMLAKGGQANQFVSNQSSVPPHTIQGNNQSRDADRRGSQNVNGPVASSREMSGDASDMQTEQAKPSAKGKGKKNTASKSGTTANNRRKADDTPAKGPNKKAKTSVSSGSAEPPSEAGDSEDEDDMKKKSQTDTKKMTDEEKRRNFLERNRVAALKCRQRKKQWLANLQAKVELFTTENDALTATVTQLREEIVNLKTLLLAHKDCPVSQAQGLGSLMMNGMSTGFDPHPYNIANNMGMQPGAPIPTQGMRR
Assay: co-IP; GFP-Trap resin with protein extracts of A. fumigatus mycelia (grown 16 h in liquid YG; untreated, 1.2 M sorbitol 10 min, or Congo Red 300 ug/ml 10 min); 4 h at 4°C, washed three times in B250 buffer; Western blot with anti-GFP and anti-HA

AtfB:3xHA (from UniProt Q4WVQ7 1-328) was tested, and the binding was “binds”.
